Test results reported in PMC12150175.
Results are given in words; binding and its absence hold for the method and conditions named. Binding seen in cells or lysates may run through a third protein. Some results given as binding are weak or reduced against the parent protein; the word gives no strength. For some of these results: Sequences can lack the tags named with a protein.

Sequences of proteins named here, by UniProt entry; tags and fusion partners are left off.
UniProt P35579: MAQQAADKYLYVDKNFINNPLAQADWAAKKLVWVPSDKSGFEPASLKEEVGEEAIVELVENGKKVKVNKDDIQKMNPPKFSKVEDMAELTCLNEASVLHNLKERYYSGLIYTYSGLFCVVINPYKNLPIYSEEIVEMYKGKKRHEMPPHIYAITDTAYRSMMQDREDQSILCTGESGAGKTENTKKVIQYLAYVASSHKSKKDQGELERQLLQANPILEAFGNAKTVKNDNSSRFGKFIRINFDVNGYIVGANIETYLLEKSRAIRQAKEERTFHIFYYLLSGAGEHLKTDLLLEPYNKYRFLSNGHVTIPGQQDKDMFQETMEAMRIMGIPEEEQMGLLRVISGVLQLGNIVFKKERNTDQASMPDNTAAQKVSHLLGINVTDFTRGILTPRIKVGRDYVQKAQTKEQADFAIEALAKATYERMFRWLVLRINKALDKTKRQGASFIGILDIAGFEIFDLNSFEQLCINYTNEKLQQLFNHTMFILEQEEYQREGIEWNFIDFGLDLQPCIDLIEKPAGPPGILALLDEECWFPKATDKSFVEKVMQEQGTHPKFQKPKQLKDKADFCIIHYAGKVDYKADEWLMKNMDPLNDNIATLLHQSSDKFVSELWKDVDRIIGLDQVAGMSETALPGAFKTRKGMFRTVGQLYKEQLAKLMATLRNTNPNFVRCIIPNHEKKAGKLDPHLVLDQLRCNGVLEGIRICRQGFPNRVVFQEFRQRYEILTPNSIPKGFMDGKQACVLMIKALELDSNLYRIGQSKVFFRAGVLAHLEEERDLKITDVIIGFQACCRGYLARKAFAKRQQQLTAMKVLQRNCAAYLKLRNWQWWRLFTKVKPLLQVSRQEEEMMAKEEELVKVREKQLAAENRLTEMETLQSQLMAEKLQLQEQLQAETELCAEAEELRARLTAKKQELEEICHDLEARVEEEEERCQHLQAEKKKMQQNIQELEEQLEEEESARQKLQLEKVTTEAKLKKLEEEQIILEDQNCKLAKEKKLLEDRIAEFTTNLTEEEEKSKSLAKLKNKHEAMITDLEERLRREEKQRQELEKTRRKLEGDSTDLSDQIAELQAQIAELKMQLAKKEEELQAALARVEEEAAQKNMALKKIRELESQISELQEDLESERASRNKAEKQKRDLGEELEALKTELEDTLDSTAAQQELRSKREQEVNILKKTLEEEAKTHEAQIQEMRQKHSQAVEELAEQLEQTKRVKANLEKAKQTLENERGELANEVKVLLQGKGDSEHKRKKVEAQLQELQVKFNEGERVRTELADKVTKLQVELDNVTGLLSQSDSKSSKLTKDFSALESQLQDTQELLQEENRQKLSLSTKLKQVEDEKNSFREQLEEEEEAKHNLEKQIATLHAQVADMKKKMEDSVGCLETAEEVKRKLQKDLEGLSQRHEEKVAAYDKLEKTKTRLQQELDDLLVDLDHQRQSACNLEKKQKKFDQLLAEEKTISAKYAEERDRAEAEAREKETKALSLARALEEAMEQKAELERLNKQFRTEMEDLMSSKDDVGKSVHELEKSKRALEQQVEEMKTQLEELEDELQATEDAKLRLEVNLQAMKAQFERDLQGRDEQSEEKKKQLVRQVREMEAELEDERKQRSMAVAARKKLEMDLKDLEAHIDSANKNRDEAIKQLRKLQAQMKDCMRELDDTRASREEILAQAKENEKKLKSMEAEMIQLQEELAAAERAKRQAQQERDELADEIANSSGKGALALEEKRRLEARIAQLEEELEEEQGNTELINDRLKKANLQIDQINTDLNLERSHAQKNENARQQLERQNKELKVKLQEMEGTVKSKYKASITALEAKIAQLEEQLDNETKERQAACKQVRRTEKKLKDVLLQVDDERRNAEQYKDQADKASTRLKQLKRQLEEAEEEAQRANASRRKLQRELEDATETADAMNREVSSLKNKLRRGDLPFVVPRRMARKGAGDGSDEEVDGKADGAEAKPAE
UniProt P68400: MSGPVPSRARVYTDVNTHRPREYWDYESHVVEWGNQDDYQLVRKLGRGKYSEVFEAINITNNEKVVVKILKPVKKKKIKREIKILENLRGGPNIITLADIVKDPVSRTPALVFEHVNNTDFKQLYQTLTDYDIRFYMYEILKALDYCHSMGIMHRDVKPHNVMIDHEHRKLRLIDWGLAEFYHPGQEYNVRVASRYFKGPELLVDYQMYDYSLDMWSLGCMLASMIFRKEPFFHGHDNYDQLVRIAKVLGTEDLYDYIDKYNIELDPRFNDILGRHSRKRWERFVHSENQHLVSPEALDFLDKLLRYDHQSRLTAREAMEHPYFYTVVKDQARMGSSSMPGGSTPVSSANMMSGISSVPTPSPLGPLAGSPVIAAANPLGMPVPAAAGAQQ

Tests used:
[1] = target: T1, MOTS-c fused with green fluorescent protein (MOTS-c-GFP) (human); experiment: co-IP; IP with GFP antibodies from lysates of MOTS-c-GFP HPMVECs under normoxia or HR, also after siRNA-MYH9 or siRNA-NC; Protein A/G magnetic beads, antibody overnight at 4 °C; Western blot
T1 sequence: MRWQEMGYIFYPRKLR

[2] = target: myosin heavy chain 9 (MYH9) (human (endogenous in HPMVECs)) (UniProt P35579); experiment: co-IP; IP of endogenous MYH9 from lysates of MOTS-c-GFP HPMVECs under normoxia or HR; Protein A/G magnetic beads, antibody overnight at 4 °C; Western blot

| Substance | binding [1] | binding [2] |
| --- | --- | --- |
| myosin heavy chain 9 (MYH9) (from UniProt P35579 1-1960) | binds |  |
| casein kinase II subunit alpha (CK2A) (from UniProt P68400 1-391) (enzyme) |  | binds |
| MYH9 phosphorylated at Ser1943 (p-MYH9) (from UniProt P35579 1-1960) | binds |  |
| PKCα (from UniProt P17252 1-672) (enzyme) |  | binds |
